From patent US20250049699A1, “COSMETIC COMPOSITION FOR PREVENTION OR IMPROVEMENT OF INFLAMMATORY SKIN DISEASES COMPRISING STRAIN OF GENUS CUTIBACTERIUM” (CJ Bioscience, Inc., priority 2021, published 2025)
At least one structure is not confirmed: it was looked up by name or label, or the drawing left a doubt.

Tested on: Raw264.7 macrophages
Test: Immunity index analysis: strain culture products on Raw264.7 macrophages stimulated with C. acnes (ATCC 6919) culture product (cytokine ELISA, cell counting kit 8)
Assay type: cell-based
Conditions: culture products filtered to 3 kDa or less, 20 μl in 200 μl/well, 24 hours, dexamethasone 100 nM, versus Cell only w/stimuli

C[C@@H]1C[C@H]2[C@@H]3CCC4=CC(=O)C=C[C@]4(C)[C@@]3(F)[C@@H](O)C[C@]2(C)[C@@]1(O)C(=O)CO [dexamethasone]
secreted amount of the inflammatory cytokines (IL-6, CCL2, TNF): reduced
